Laboratory results: patent US4835156A, “Vasodilatory dihydrodibenzocycloheptyliden-ethyl piperazine derivatives and process for the preparation of these compounds” (Sociedad Espanola De Especialidades Terepeuticas, S.A., priority 1983, dated 1989)

Legend:
Rat hind-quarters = assay: Vasodilatory activity, isolated rat hind-quarters (antagonism of vasoconstriction by hyperkalaemic Tyrode solution); parameters: key: ++++: Very intense activity; +++: Considerable activity; ++: Low activity; +: Low activity; 0: Null activity; settings: crosses relative to standard drugs cinnarizine and flunarizine;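 note: four crosses equal an effect comparable to the standard drug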
Excerpt: (§1) The significance of the symbols is as follows:
In order to test the vasodilatory activity, the first trial employs the technique of the isolated rat hind-quarters (Table 2), which involves antagonizing the vasoconstrictive effect of perfusion of hyperkalaemic Tyrode solution, according to the method of F. N. Fastier and F. H. Smirk (J. Pharm. Exp. Therap. 89, […] (1947)), and then calculating for the products which show the greatest activity, the ED30, that is the dose which produces a 30% vasodilatory activity with respect to the basic vasoconstriction.

[1] = test system: Rabbit cerebral territory; assay: Vasodilation in perfused rabbit cerebral territory (variation in perfusion pressure); type: in vivo; parameters: key to Vasodilatory Activity (Rabbit cerebral territory) Evaluation: ++++: Very intense activity; +++: Considerable activity; ++: Low activity; +: Low activity; 0: Null activity;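 for Vasodilatory Activity (Rabbit cerebral territory) Evaluation: four crosses equal an effect comparable to the standard drug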
Method: as §1
In a further trial, the vasodilatory activity is evaluated by the technique of vasodilation in perfused rabbit cerebral territory as described by P. Vaupel and H. Hutten (Arzneim. Forsch./Drug Res. 30(I), 598-602 (1980)), calculating the variation in perfusion pressure after treatment (Table 3).
Table 3 employs the same conventional signs based on crosses, with the same relative significance as in Table 2.
The standard drug employed is cinnarizine.
(*) Calculated by multiplying the % vasodilation by duration of action.

C(=C\c1ccccc1)/CN1CCN(C(c2ccccc2)c2ccccc2)CC1 [Cinnarizine, reference compound]
Vasodilatory Activity (Rat hind-quarters) Evaluation (Rat hind-quarters): ++++
Vasodilatory Index ([1]; % vasodilation multiplied by duration of action): 535.0 mm^2
Vasodilatory Activity (Rabbit cerebral territory) Evaluation ([1]; crosses relative to standard cinnarizine): ++++
